Results are given in words; binding and its absence hold for the method and conditions named. In cells and extracts the contact can be indirect. Here binding means that the protein was enriched with, or labelled near, the bait; the list need not be complete.
Biological target: protein arginine methyltransferase PRMT5 (human (endogenous in KMS11)) (UniProt O14744)
Assay: affinity purification with mass spectrometry

Amino acid sequences for entries named in this document (tags omitted).
UniProt O14744: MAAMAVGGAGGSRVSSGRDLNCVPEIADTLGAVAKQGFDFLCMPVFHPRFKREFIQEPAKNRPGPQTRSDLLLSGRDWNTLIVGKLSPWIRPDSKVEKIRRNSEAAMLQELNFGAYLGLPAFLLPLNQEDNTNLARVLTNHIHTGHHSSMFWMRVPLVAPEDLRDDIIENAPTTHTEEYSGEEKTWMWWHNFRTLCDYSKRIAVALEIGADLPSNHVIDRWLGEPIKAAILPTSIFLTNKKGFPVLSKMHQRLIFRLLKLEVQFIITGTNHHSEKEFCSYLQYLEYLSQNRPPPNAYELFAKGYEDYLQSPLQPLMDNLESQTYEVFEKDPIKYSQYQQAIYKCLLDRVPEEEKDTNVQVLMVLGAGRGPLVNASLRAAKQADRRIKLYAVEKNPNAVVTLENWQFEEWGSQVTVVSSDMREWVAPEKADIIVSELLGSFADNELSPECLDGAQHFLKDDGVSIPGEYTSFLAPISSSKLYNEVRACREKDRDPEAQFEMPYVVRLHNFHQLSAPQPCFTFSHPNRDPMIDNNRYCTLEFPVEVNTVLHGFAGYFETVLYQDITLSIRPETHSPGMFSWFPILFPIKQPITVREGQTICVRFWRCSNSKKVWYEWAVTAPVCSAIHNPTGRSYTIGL
UniProt O95785: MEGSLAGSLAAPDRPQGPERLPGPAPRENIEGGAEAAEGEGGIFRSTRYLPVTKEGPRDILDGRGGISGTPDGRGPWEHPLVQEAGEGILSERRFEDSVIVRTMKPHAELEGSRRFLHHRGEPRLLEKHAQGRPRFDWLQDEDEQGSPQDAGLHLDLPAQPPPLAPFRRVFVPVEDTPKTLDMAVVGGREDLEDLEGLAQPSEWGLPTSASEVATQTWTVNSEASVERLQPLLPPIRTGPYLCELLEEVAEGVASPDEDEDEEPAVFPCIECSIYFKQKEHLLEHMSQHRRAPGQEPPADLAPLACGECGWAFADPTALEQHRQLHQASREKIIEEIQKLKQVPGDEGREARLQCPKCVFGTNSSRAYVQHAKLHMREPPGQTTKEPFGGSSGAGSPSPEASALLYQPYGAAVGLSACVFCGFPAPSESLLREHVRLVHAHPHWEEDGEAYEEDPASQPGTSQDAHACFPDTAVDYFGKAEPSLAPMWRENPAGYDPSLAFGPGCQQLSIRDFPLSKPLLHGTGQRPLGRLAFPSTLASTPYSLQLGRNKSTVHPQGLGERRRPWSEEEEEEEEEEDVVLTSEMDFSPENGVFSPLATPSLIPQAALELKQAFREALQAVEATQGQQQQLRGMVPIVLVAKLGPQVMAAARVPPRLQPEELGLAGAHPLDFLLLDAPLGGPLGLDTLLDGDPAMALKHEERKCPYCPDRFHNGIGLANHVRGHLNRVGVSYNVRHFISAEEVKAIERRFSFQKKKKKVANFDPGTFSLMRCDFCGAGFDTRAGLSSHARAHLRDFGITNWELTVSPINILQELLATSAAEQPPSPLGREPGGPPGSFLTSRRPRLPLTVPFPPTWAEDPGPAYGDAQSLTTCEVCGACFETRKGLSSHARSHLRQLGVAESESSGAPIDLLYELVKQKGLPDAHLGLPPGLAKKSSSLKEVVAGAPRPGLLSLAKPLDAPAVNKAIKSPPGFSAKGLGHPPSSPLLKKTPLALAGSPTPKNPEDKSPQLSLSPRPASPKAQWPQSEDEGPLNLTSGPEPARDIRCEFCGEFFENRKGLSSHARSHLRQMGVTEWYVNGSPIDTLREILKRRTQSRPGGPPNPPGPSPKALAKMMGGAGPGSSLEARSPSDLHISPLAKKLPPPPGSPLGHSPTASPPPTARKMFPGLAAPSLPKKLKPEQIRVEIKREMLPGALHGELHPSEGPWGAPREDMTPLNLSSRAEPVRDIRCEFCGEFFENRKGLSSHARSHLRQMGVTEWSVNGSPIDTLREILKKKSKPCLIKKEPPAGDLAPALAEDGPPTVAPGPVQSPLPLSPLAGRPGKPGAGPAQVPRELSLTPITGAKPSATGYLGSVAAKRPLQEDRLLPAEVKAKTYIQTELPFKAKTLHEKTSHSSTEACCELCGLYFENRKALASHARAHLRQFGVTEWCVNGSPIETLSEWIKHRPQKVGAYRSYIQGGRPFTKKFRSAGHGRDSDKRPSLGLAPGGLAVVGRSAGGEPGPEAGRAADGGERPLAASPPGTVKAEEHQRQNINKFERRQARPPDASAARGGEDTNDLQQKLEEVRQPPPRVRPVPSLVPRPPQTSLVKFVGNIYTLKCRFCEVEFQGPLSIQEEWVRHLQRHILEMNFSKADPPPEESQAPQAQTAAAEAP
UniProt P11171: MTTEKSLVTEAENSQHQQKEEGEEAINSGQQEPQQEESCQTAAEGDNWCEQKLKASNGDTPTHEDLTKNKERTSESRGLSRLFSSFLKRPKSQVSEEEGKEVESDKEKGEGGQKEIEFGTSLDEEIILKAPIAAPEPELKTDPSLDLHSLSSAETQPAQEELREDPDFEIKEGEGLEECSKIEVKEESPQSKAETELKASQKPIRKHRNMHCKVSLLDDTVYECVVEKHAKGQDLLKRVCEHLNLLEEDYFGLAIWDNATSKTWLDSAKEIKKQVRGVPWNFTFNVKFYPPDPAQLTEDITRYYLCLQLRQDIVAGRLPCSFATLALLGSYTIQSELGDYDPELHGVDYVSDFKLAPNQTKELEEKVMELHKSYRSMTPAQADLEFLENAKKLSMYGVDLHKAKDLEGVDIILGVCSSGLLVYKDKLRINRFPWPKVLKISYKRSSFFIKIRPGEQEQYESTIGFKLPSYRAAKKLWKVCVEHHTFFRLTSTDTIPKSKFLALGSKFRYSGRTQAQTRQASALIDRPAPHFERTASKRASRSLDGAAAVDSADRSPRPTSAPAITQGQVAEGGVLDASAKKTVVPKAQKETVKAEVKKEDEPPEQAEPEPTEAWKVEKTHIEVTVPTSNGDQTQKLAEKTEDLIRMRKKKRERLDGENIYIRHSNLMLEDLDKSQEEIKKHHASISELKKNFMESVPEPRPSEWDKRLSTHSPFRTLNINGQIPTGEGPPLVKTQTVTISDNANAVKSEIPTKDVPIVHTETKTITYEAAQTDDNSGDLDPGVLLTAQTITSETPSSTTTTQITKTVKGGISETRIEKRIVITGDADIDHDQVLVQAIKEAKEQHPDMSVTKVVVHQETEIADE

Substance | binding
zinc finger protein WIZ (from UniProt O95785 1-1651) | binds
EPB41 (from UniProt P11171 1-864) | binds

From paper doi:10.1101/2022.01.20.477145
